According to patent US20050256195A1, “Composition for preventing hypertension” (priority 2002, published 2005):

Conditions: 20 adults

In the case of CC(=O)O [acetic acid], the “participants who indicated ease of drinking” value (10 g or lower acetic acid in 1,000 g beverage) is reported as ≥ 18 participants, the “participants who recognized a problem of taste” value (30 g acetic acid in 1,000 g beverage) is reported as 10 participants and the “participants who pointed out a problem of taste” value (50 g acetic acid in 1,000 g beverage) is reported as 19 participants.
